# Library screen at single concentrations

Source: ChEMBL document CHEMBL3988442, “University of Dundee, Small-Polar-MMV Screening Library” (2021).

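Phenotypic screen: M. tuberculosis growth, cholesterol and DPPC medium, 4 days; the read-out is not stated. Tested at 50 µM. Direction is inferred from retests: higher values go with more growth inhibition. Of about 69,000 compounds tested this way, about 370 (0.54%) reached 50% or more in at least one test.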

The filed quantity is “Percent Effect” (%).
How 0% and 100% were set is not recorded. Most values in the screen are low, and negative values occur.
Compounds were drawn at random from those tested, without regard to their results.
Two or more numbers in one place are separate tests of the same structure; such repeats can differ widely.

- COc1cc(CN(C(=O)Nc2cccnc2OC)C2CC2)ccc1O | -0.1394%
- O=C(c1ccco1)N1CCC2(CCC(=O)N2Cc2cccc(F)c2)CC1 | 4.756%
- Cc1nc(CN2CCC(O)(c3ccccc3F)CC2)c2ccccn12.O=C(O)CC(O)(CC(=O)O)C(=O)O | 2.202% & 13.54%
- Cc1cc(N2CCC(CO)(CC3CCCCO3)CC2)nc2ccccc12 (stereo not shown) | 11.87%
- O=C(NCCn1ccnc1)N1CCN(Cc2ccco2)CC1 | -4.39%
- NC(=O)c1ccc(-n2ccnc2C2CC2)cc1N1CCCC1 | -7.667%
- CCc1nc(Cn2c(=O)n(C)c3ccccc32)no1 | -6.731%
- [H][C@]12CN(c3ncccn3)C[C@@]1([H])S(=O)(=O)CC[C@@H]2C(=O)NC(C)C | -1.432%
- Cc1nc(C)n(CC2CCCN2CCCc2ccccc2)n1 (stereo not shown) | -9.13%
- CC(C)(C)CC(=O)Nc1ccccc1SCC(N)=O | -14.56%
- Cc1[nH]ccc1C(=O)N[C@H]1CN(S(C)(=O)=O)C[C@@H]1C1CC1 | 1.71%
- CCN1CC(C(=O)NC(C)(C)C)CC1=O (stereo not shown) | -1.1%
- O=C(O)C(F)(F)F.O=C(O)C(F)(F)F.[H][C@@]12CN(C(=O)c3ccsc3)C[C@]1([H])OCCN2CCN1CCCC1 | 16.35% & -4.306%
- CN1CCN(C(=O)C2CCCN(c3cccnn3)C2)CC1 (stereo not shown) | 31.89%
- CN(C)CCN1C(=O)CCC12CCN(C(=O)c1cccnc1)CC2.O=C(O)C(F)(F)F.O=C(O)C(F)(F)F | 6.394%
- O=C(NCc1nncn1C1CC1)c1ccccc1Oc1cccnc1 | 4.952%
- CCc1cc(=O)n(CC(=O)N2CCCC2)c(-c2ccc(F)cc2)n1 | -6.042%
- O=C(CN1CSCC1=O)NCC1CCN(c2ccccc2)C1 (stereo not shown) | 11.82%
- CN(Cc1ccon1)C(=O)CN1C(=O)OC(C)(C)C1=O | -2.629% & -3.146%
- CS(=O)(=O)N1CCOCC2(CCN(c3ccccn3)C2)C1.O=C(O)C(F)(F)F (stereo not shown) | -0.5701%
- CCCc1n[nH]c(C2CN(Cc3ncc[nH]3)CCO2)n1 (stereo not shown) | -14.42%
- Cl.O=C(NCC(F)F)c1cnc(C2CCCN2)cn1 (stereo not shown) | 5.192% & -26.43%
- Cc1ccc(-c2noc(CNCC3CN(C)CCO3)n2)cc1F (stereo not shown) | 17.28%
- O=C(NCc1cc[nH]n1)NCC(c1ccc(F)cc1)N1CCOCC1 (stereo not shown) | -1.451%
- Cc1ccnc(C2CN(Cc3ccc(-c4ccccc4C(=O)O)o3)C2)n1 | -3.045% & 1.596%
- COc1ccc(OC)c(CN2CCC(c3cc(O)nc(C)n3)C2)c1 (stereo not shown) | -22.03%
- O=c1cccnn1CC1CN(c2ncc(F)cn2)Cc2nccn2C1 (stereo not shown) | -13.31%
- Cc1nc(C2CCN(C(=O)CO)CC2)cc(N2CCOCC2)n1 | -4.002%
- COC1CCCOC12CCN(C(=O)c1ccc3[nH]nnc3c1)CC2 (stereo not shown) | -0.3846%
- O=C(O)C(F)(F)F.O=C1CC2(CCN(Cc3ccccn3)C2)CN1c1cncnc1 (stereo not shown) | -1.695%
- COCC1CN(Cc2ccc(OC)cc2)Cc2nnn(CC3CC3)c21.O=C(O)C(F)(F)F (stereo not shown) | -3.852%
- CCC(C)C(=O)NCc1cccc(N2CCCCC2=O)c1 (stereo not shown) | 4.809%
- Cc1ncsc1CCn1ccnc1-c1cc2n(n1)CCCNC2 | -4.325%
- O=C(NCC1CC1)C1CCC2(CCN(C(=O)c3ccco3)CC2)O1 (stereo not shown) | -0.6287% & -6.733%
- CNC(=O)CN1CCCC12CCN(C(=O)c1ccoc1)CC2.O=C(O)C(F)(F)F | 6.985%
- CN(C)CC(=O)N1CC2(CCN(C(=O)Nc3ccccc3)C2)C1.O=C(O)C(F)(F)F | 4.527%
- O=C(O)C(F)(F)F.[H][C@@]12CN(CC3CCCC3)C[C@]1([H])OCCN2c1ncc(F)cn1 | 11.29%
- COCCCN1CCN(CC2CCCO2)CC1 (stereo not shown) | -29.87% & -8.479%
- c1ccc(-c2noc(CN3CCOC(Cn4cccn4)C3)n2)nc1 (stereo not shown) | -5.636%

Once more, the final 5:

* CNC(=O)CN1CCCC12CCN(C(=O)c1ccoc1)CC2.O=C(O)C(F)(F)F : 6.985%
* CN(C)CC(=O)N1CC2(CCN(C(=O)Nc3ccccc3)C2)C1.O=C(O)C(F)(F)F : 4.527%
* O=C(O)C(F)(F)F.[H][C@@]12CN(CC3CCCC3)C[C@]1([H])OCCN2c1ncc(F)cn1 : 11.29%
* COCCCN1CCN(CC2CCCO2)CC1 (stereo not shown) : -29.87% & -8.479%
* c1ccc(-c2noc(CN3CCOC(Cn4cccn4)C3)n2)nc1 (stereo not shown) : -5.636%